Data taken from the supplement of paper PMC12595434, “Development of retinoid nuclear receptor pathway antagonists through targeting aldehyde dehydrogenase 1A3” (iScience, 2025).
Some of the results follow. Single values of this set are uncertain.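 Tm was set to 64 °C where no melting was found, and many curves are irregular.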

By UniProt entry, the sequences of proteins in these tests, tags left out. Where a name states a change or a piece, a line headed by the entry shows the natural chain unless it says otherwise.
UniProt Q96LT7: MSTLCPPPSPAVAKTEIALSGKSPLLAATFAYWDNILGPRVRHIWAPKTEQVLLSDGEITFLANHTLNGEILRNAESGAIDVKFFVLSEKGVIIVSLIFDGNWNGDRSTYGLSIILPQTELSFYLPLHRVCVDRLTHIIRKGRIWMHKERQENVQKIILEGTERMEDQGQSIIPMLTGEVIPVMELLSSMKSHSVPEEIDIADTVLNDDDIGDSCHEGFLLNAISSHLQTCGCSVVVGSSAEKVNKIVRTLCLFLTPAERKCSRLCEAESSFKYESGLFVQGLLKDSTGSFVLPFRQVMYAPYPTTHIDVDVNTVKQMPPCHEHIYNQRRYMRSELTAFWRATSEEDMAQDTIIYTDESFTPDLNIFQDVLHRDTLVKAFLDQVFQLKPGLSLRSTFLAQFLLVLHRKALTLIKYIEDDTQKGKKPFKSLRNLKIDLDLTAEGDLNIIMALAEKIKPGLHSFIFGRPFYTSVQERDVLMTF
UniProt Q99470: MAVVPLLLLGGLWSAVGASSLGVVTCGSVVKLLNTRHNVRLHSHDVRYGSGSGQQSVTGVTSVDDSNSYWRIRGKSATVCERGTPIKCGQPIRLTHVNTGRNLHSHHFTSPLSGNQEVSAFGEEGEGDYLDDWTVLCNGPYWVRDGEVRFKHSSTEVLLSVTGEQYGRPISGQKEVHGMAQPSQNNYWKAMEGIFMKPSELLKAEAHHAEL
UniProt Q96RF0: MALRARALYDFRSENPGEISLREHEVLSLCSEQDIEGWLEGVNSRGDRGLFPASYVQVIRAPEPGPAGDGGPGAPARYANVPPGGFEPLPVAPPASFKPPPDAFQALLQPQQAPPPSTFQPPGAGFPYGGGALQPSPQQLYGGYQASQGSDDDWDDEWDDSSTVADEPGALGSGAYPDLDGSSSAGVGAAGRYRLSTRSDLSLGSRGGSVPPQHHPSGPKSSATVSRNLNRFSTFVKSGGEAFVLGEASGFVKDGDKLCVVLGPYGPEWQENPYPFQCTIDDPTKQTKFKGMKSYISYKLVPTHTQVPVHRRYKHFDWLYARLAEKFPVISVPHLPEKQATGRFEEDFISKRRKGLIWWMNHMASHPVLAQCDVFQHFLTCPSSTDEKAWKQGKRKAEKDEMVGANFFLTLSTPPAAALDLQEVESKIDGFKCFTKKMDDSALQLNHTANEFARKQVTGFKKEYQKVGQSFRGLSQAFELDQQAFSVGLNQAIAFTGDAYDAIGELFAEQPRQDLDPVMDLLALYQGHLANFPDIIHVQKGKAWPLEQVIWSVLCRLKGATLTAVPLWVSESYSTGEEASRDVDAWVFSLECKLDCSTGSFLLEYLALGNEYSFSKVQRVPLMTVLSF
UniProt Q96I25: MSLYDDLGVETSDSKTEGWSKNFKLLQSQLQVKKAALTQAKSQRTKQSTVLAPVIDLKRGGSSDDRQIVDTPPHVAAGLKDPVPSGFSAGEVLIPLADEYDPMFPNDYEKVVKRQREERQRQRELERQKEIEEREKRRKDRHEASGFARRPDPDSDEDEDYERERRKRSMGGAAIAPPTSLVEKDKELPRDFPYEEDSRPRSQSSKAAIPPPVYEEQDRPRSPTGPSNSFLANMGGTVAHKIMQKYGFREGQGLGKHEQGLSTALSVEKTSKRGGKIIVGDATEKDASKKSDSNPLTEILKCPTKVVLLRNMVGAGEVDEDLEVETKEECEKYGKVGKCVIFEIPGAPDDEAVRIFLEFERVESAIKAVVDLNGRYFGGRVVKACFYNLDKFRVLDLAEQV
UniProt Q96PK6: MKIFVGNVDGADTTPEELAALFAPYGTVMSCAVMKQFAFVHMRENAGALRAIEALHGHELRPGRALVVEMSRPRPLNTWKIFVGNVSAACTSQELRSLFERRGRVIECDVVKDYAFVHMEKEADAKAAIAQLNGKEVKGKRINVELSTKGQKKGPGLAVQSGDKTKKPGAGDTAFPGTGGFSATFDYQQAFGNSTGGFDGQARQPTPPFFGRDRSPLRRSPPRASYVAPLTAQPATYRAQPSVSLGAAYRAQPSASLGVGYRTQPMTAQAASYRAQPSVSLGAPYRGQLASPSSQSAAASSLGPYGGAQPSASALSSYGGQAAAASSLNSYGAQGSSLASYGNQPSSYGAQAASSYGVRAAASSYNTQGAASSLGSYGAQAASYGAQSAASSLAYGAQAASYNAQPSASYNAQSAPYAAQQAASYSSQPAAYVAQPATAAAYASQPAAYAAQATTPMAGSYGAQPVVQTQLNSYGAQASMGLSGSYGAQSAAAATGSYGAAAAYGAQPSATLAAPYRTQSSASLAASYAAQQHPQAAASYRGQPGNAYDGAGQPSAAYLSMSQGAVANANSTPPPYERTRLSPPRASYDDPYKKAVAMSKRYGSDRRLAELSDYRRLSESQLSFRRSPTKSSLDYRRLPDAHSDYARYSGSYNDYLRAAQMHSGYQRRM
UniProt Q96KP4: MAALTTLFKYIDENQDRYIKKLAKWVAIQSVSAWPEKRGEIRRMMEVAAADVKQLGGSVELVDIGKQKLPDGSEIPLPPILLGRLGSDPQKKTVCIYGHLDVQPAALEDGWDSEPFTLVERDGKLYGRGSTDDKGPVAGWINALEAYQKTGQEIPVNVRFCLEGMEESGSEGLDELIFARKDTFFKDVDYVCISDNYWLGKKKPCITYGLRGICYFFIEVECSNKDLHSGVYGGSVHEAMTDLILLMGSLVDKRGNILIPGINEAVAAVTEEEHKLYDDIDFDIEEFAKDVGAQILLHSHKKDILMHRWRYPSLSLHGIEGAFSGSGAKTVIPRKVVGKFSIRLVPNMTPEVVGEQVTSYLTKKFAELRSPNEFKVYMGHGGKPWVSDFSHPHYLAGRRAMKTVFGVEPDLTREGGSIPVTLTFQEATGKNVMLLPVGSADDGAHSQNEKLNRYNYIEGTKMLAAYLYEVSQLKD
UniProt Q96S52: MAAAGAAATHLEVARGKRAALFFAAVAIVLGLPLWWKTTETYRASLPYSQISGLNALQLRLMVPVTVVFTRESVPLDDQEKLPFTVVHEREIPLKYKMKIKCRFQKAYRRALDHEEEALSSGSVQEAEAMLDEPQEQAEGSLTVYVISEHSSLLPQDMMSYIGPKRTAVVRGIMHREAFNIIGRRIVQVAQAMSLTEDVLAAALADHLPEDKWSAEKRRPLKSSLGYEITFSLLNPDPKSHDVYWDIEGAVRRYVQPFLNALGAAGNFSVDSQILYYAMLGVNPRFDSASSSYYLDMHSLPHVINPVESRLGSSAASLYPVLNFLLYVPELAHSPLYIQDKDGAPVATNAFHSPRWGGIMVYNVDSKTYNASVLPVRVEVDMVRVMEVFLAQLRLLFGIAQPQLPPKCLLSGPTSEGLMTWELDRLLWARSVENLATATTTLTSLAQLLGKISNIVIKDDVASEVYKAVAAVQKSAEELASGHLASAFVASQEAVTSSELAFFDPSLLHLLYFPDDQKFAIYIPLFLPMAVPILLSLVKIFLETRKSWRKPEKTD
UniProt Q96P11: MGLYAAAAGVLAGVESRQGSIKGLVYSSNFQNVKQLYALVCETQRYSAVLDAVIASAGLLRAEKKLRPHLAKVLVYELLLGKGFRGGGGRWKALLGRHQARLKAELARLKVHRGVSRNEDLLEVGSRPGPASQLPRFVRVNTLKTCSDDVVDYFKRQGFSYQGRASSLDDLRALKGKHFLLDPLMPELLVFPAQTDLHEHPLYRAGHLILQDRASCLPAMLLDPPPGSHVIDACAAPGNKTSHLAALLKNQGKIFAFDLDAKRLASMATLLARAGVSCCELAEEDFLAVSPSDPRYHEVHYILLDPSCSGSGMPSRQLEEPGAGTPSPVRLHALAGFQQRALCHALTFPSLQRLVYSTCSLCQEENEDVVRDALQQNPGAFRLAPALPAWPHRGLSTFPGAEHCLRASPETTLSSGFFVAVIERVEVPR
UniProt Q96TA2: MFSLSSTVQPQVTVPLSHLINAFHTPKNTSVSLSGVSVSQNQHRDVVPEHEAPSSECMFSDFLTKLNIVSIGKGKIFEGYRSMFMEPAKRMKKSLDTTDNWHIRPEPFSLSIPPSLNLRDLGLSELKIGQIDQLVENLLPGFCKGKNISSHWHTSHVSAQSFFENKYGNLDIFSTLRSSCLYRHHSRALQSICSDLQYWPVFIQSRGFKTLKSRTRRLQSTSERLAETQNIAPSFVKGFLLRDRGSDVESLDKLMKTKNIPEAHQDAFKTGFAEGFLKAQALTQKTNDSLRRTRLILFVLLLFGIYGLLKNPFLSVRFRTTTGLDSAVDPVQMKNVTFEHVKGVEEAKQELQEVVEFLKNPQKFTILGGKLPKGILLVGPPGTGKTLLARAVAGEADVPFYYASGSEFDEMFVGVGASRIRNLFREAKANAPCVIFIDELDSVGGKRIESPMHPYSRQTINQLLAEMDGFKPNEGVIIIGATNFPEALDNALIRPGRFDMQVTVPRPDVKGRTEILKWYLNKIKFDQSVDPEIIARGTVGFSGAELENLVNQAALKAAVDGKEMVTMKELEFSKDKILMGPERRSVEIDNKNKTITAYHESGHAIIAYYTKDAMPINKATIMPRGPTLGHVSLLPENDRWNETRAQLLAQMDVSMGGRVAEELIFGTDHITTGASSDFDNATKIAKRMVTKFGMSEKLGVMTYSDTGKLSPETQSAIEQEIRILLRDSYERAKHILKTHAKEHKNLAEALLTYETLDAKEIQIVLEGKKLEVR
UniProt Q96RS6: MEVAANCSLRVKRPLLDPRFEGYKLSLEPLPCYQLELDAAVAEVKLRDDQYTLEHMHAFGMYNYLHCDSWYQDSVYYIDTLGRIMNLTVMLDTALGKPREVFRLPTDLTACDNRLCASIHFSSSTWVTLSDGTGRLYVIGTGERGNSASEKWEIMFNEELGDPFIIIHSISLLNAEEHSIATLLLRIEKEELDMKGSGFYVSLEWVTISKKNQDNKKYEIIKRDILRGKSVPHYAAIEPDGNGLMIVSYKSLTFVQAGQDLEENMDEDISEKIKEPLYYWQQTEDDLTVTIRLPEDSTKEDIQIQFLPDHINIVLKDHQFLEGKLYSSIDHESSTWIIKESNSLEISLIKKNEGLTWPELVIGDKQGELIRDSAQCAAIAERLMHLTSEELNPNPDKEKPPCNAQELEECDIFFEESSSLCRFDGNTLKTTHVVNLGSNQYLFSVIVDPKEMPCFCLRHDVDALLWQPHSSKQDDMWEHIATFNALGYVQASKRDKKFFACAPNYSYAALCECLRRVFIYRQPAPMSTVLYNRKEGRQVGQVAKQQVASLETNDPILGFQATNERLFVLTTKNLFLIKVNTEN
UniProt Q96S59, whole entry: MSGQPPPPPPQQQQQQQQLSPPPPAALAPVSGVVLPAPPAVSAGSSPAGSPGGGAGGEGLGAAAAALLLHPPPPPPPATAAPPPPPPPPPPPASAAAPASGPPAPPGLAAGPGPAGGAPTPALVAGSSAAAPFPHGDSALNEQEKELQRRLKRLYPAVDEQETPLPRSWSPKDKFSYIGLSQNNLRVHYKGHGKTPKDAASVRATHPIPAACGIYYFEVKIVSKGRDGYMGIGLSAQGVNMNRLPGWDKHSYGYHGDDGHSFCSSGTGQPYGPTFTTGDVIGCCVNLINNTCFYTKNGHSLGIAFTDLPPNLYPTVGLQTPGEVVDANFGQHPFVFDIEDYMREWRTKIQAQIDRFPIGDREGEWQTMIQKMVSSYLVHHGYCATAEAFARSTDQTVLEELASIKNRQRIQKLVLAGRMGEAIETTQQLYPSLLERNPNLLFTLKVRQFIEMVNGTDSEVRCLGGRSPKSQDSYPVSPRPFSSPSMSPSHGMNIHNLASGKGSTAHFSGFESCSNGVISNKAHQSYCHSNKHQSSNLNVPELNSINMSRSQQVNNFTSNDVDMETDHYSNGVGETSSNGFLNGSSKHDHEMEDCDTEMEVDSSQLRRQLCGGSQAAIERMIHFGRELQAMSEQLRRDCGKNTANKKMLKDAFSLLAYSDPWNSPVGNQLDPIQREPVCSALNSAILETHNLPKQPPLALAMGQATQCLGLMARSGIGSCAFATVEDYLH
UniProt Q96G46: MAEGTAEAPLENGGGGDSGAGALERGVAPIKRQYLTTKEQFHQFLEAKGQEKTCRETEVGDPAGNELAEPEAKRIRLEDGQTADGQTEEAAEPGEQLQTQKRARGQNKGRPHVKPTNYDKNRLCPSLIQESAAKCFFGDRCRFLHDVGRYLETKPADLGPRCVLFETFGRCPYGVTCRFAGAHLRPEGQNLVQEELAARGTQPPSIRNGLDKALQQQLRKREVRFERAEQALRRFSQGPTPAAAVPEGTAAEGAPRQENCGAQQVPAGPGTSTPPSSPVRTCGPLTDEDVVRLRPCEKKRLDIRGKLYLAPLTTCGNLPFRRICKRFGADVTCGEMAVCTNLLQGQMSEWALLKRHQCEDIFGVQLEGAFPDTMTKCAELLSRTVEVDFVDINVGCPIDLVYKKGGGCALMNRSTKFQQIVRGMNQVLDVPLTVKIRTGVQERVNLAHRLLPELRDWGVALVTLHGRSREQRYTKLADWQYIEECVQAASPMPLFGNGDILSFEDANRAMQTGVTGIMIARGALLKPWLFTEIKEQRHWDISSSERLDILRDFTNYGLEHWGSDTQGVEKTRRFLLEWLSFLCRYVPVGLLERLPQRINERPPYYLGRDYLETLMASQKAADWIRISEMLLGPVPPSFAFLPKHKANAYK

What follows are targets tested with CCc1cnccc1C(=O)Nc1cc2c(cc1F)NC(=O)CC2 (assay: melting temperature shift (DMSO Tm minus MBE1-treated Tm) in cellular thermal proteome profiling; higher = less thermal stabilization by MBE1 (negative = stabilized by MBE1)). Conditions: A375; MBE1 concentration: 100 nM.
UniProt Q96LT7 showed a melting temperature shift of -2.03 °C. CAMKK2 (UniProt Q96RR4) gave a melting temperature shift of -0.671 °C. For IFT140 (UniProt Q96RY7), the melting temperature shift was -1.91 °C. Target KIRREL (UniProt Q96J84) has a melting temperature shift of -0.545 °C. Target USP28 (UniProt Q96RU2) has a melting temperature shift of -0.423 °C. PASK (UniProt Q96RG2) showed a melting temperature shift of 0.678 °C. SDF2 (UniProt Q99470) gave a melting temperature shift of -1.36 °C. In the case of SMG1 (UniProt Q96Q15), the melting temperature shift is reported as -0.127 °C. In the case of UniProt Q96RF0, the melting temperature shift is reported as -0.575 °C. For DDX27 (UniProt Q96GQ7), the melting temperature shift was 1.41 °C. With RBM17 (UniProt Q96I25) the melting temperature shift was -0.593 °C. In the case of ABHD14B (UniProt Q96IU4), the melting temperature shift is reported as 0.293 °C. In the case of UniProt Q96Q07, the melting temperature shift is reported as 0.63 °C. With RBM14 (UniProt Q96PK6) the melting temperature shift was -0.122 °C. S100A16 (UniProt Q96FQ6) was tested, and the melting temperature shift was -2.06 °C. For UniProt Q96FN4, the melting temperature shift was 1.23 °C. For CNDP2 (UniProt Q96KP4), the melting temperature shift was -2.97 °C. In the case of PIGS (UniProt Q96S52), the melting temperature shift is reported as 0.423 °C. RPS6KC1 (UniProt Q96S38) showed a melting temperature shift of -0.0177 °C. Work on UniProt Q96NL6 yielded a melting temperature shift of 0.309 °C. Work on INTS4 (UniProt Q96HW7) yielded a melting temperature shift of -0.456 °C. For PTCD3 (UniProt Q96EY7), the melting temperature shift was 0.775 °C. Work on UniProt Q96N46 yielded a melting temperature shift of -0.378 °C. In the case of NSUN5 (UniProt Q96P11), the melting temperature shift is reported as -0.429 °C. DNAJA3 (UniProt Q96EY1) gave a melting temperature shift of -2.34 °C. With VMP1 (UniProt Q96GC9) the melting temperature shift was -0.721 °C. YME1L1 (UniProt Q96TA2) gave a melting temperature shift of -0.442 °C. In the case of CLIC6 (UniProt Q96NY7), the melting temperature shift is reported as -2.29 °C. NUDCD1 (UniProt Q96RS6) gave a melting temperature shift of 0.458 °C. Work on DHTKD1 (UniProt Q96HY7) yielded a melting temperature shift of 1.41 °C. Target UniProt Q96EM0 has a melting temperature shift of -0.912 °C. TRIM47 (UniProt Q96LD4) gave a melting temperature shift of -0.865 °C. Target IFT74 (UniProt Q96LB3) has a melting temperature shift of -1.14 °C. ZFR (UniProt Q96KR1) showed a melting temperature shift of -0.177 °C. PNKP (UniProt Q96T60) was tested, and the melting temperature shift was -0.852 °C. In the case of RANBP9 (UniProt Q96S59), the melting temperature shift is reported as 0.684 °C. DUS3L (UniProt Q96G46) showed a melting temperature shift of -1.11 °C. In the case of SPAG5 (UniProt Q96R06), the melting temperature shift is reported as -0.984 °C.

Same assay, conditions: A375; MBE1 concentration: 1 uM
Target UniProt Q96LT7 has a melting temperature shift of -0.352 °C. CAMKK2 (UniProt Q96RR4) was tested, and the melting temperature shift was 0.449 °C. IFT140 (UniProt Q96RY7) gave a melting temperature shift of -1.62 °C. Target KIRREL (UniProt Q96J84) has a melting temperature shift of -0.599 °C. With USP28 (UniProt Q96RU2) the melting temperature shift was -0.589 °C. In the case of PASK (UniProt Q96RG2), the melting temperature shift is reported as 0.366 °C. SDF2 (UniProt Q99470) was tested, and the melting temperature shift was 0.305 °C. For SMG1 (UniProt Q96Q15), the melting temperature shift was 0 °C. With UniProt Q96RF0 the melting temperature shift was -0.74 °C. DDX27 (UniProt Q96GQ7) showed a melting temperature shift of 0.232 °C. Target RBM17 (UniProt Q96I25) has a melting temperature shift of -0.819 °C. ABHD14B (UniProt Q96IU4) showed a melting temperature shift of 0.488 °C. With UniProt Q96Q07 the melting temperature shift was 1.12 °C. RBM14 (UniProt Q96PK6) was tested, and the melting temperature shift was -0.0932 °C. In the case of S100A16 (UniProt Q96FQ6), the melting temperature shift is reported as -2.34 °C. UniProt Q96FN4 was tested, and the melting temperature shift was 0.751 °C. Work on CNDP2 (UniProt Q96KP4) yielded a melting temperature shift of -0.88 °C. Work on PIGS (UniProt Q96S52) yielded a melting temperature shift of 0.376 °C. RPS6KC1 (UniProt Q96S38) was tested, and the melting temperature shift was 0.313 °C. With UniProt Q96NL6 the melting temperature shift was 2.33 °C. In the case of INTS4 (UniProt Q96HW7), the melting temperature shift is reported as 0.188 °C. With PTCD3 (UniProt Q96EY7) the melting temperature shift was 0.311 °C. UniProt Q96N46 showed a melting temperature shift of -0.0822 °C. With NSUN5 (UniProt Q96P11) the melting temperature shift was -0.32 °C. With DNAJA3 (UniProt Q96EY1) the melting temperature shift was -2.2 °C. VMP1 (UniProt Q96GC9) was tested, and the melting temperature shift was -1.42 °C. In the case of YME1L1 (UniProt Q96TA2), the melting temperature shift is reported as -0.194 °C. With CLIC6 (UniProt Q96NY7) the melting temperature shift was 2.41 °C. Work on NUDCD1 (UniProt Q96RS6) yielded a melting temperature shift of 0.775 °C. DHTKD1 (UniProt Q96HY7) was tested, and the melting temperature shift was 0.202 °C. For UniProt Q96EM0, the melting temperature shift was 0.822 °C. TRIM47 (UniProt Q96LD4) showed a melting temperature shift of -0.711 °C. For IFT74 (UniProt Q96LB3), the melting temperature shift was -0.86 °C. ZFR (UniProt Q96KR1) was tested, and the melting temperature shift was 0.216 °C. PNKP (UniProt Q96T60) gave a melting temperature shift of -0.833 °C. Work on RANBP9 (UniProt Q96S59) yielded a melting temperature shift of 0.153 °C. With DUS3L (UniProt Q96G46) the melting temperature shift was -1.26 °C. For SPAG5 (UniProt Q96R06), the melting temperature shift was -0.641 °C.
